Data as given in PubChem BioAssay AID504764 (Drosophila RNAi Screening Center, 2011)
The screen tested about 22,000 reagents; shown is a random part of those that have a named target and a result. Of all reagents, 403 (1.9%) were called active. 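Unnormalised raw counts per well; ratio z-scores behind the hit calls and whether each hit raises or lowers signal are not deposited.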 The numbers tell different reagents against one gene apart. A plus sign joins genes that one reagent is predicted to hit. No sequences are given here. Not stated in the record: the amount of reagent.

Aim: 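Genome-wide screen for regulators of Notch-driven gene expression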 (primary screen)
Cells: Drosophila Kc167 cells
Knock-down reagent: long dsRNA against Drosophila genes
Timing: about 5 days (4 days dsRNA, then 24 h after transfection)
Treatment: transfection of constitutively active membrane-tethered Notch lacking the extracellular domain, read 24 h later
Measurement: 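Firefly luciferase from an E(spl)m3 reporter with active Notch, plus control-promoter and uninduced reporter wells for normalisation; unnormalised counts, duplicate wells a and b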
Direction: induced reporter light, run 1, well a and induced reporter light, run 1, well b: higher = more light from the Notch target reporter with active Notch; control promoter light, run 1, well a and control promoter light, run 1, well b: higher = more light from the viral control promoter (cell number, transfection, viability); uninduced reporter light, run 1, well a: higher = more light from the Notch target reporter without active Notch
Hit rule: 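Wells with low control signal or poorly matching duplicates excluded; duplicates averaged; per source plate, z beyond ±2 for induced/control log2 ratio or beyond ±1.8 for induced/uninduced marks a hit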
Meaning of the calls: active = modifier hit (raised or lowered Notch signal); inactive = not a hit

predicted target	reagent	induced reporter light, run 1, well a	induced reporter light, run 1, well b	control promoter light, run 1, well a	control promoter light, run 1, well b	uninduced reporter light, run 1, well a	Outcome
CG6660 (GeneID 42708)	1	2.01e5	2.14e5	2.82e5	2.74e5	17120	inactive
Nep4 (GeneID 42449)	1	1.65e5	1.65e5	2.16e5	2.40e5	13130	inactive
MED22 (GeneID 31038)	1	96670	1.03e5	1.40e5	1.54e5	8140	inactive
CG7457 (GeneID 38865)	1	1.81e5	1.64e5	1.90e5	1.83e5	8515	inactive
Inx3 (GeneID 44266)	1	1.91e5	1.77e5	2.52e5	2.45e5	14785	inactive
nkt (GeneID 39264)	1	1.51e5	1.42e5	2.06e5	1.43e5	7875	inactive
CG13917 (GeneID 38186)	1	91125	1.11e5	1.89e5	1.94e5	8980	inactive
CG10232 (GeneID 42800)	1	1.69e5	1.88e5	1.62e5	1.56e5	15295	inactive
Syn1 (GeneID 40424)	1	1.17e5	1.08e5	94770	90160	7430	inactive
Syn1 (GeneID 40424)	2	1.53e5	96925	1.10e5	1.10e5	8750	inactive
CG33203 (GeneID 43414)	1	39990	47710	26835	25685	7500	inactive
CG33203 (GeneID 43414)	2	1.48e5	1.31e5	2.25e5	1.75e5	12400	inactive
CG33203 (GeneID 43414)	3	1.51e5	1.35e5	1.81e5	1.56e5	10530	inactive
CG41020 (retired record) (GeneID 5740564)	1	2.12e5	2.23e5	2.87e5	3.10e5	16550	inactive
dpr18 (GeneID 32572)	1	79540	89905	77825	61015	12005	inactive
Toll-4 (GeneID 34235)	1	1.28e5	1.49e5	75665	85330	19955	inactive
Taf4 (GeneID 39765)	1	56730	57900	24100	37165	4760	inactive
CG31953 (retired record) + gkt	1	1.62e5	1.93e5	2.11e5	1.94e5	15025	inactive
CG10182 (GeneID 42780)	1	1.77e5	1.88e5	2.41e5	2.40e5	17280	inactive
cathD (GeneID 45268)	1	2.20e5	2.59e5	3.12e5	2.70e5	22820	inactive

Part of the list above, set out differently:
{"predicted target":"CG7457 (GeneID 38865)","reagent":1,"induced reporter light, run 1, well a":1.81e5,"induced reporter light, run 1, well b":1.64e5,"control promoter light, run 1, well a":1.90e5,"control promoter light, run 1, well b":1.83e5,"uninduced reporter light, run 1, well a":8515,"Outcome":"inactive"}
{"predicted target":"Inx3 (GeneID 44266)","reagent":1,"induced reporter light, run 1, well a":1.91e5,"induced reporter light, run 1, well b":1.77e5,"control promoter light, run 1, well a":2.52e5,"control promoter light, run 1, well b":2.45e5,"uninduced reporter light, run 1, well a":14785,"Outcome":"inactive"}
